Assay results

The results are deposited in PubChem (AID1224904; Broad Institute, 2016).

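293T-iDUX4 cells carrying a ZSCAN4-driven Gaussia luciferase and a tet-on Italica luciferase control; the gap between the two luminescence signals is read after 24 h.
The test concentration is not given here.
Percent difference between the Gaussia and Italica channels; more negative values mean more selective suppression of the DUX4 reporter, and higher values mean less activity.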

Values are in %.
The controls that fix the scale are not given here.
Common to all entries: measured here: selective DUX4 reporter inhibition.
This is a side read-out of the assay, for part of the compounds, not drawn at random.

| # | SMILES | Gaussia minus Italica difference (%) |
|---|---|---|
| 1 | `O=C(c1ccccc1F)N1CC(=O)N2[C@@H](CO)[C@H](c3ccc(C#Cc4ccccc4)cc3)[C@@H]2C1` | -9.093 |
| 2 | `COc1ccc(NC(=O)N2CCCCN3[C@H](C2)[C@@H](c2ccc(-c4ccccc4F)cc2)[C@@H]3CO)cc1` | -5.9 |
| 3 | `COc1ccc(C#Cc2ccc([C@@H]3[C@@H](CO)N4C(=O)CN(C(=O)c5cccnc5)C[C@@H]34)cc2)cc1` | -3.823 |
| 4 | `C[C@H]1CN([C@@H](C)CO)C(=O)c2c(c3ccccc3n2C)-c2ccccc2CO[C@H]1CN(C)S(=O)(=O)c1ccc(C(F)(F)F)cc1` | 4.442 |
| 5 | `C[C@@H]1CN([C@H](C)CO)C(=O)c2c(c3ccccc3n2C)-c2ccccc2CO[C@@H]1CN(C)Cc1cccc(O)c1` | -7.154 |
| 6 | `CN1c2ccc(-c3cccc(C#N)c3)cc2[C@H]2[C@H](CCN2C(=O)Nc2cc(F)ccc2F)[C@H]1CO` | 0.9129 |
| 7 | `COc1ccc2c3c([nH]c2c1)[C@@H](CO)N(CC1CC1)CC31CN(C(=O)c2cccc(F)c2)C1` | -13.81 |
| 8 | `COc1cccc(S(=O)(=O)N2CC3(CN(C(=O)Nc4ccc(F)cc4)[C@@H](CO)c4[nH]c5cc(OC)ccc5c43)C2)c1` | -15.32 |
| 9 | `COc1ccccc1S(=O)(=O)N1CC[C@H]2[C@H](CO)Nc3ccc(-c4cccc(C#N)c4)cc3[C@H]21` | 15.83 |
| 10 | `COc1ccc2c3c(n(C)c2c1)[C@@H](CO)N(C(C)=O)CC31CCN(Cc2ccc(Cl)cc2)CC1` | 19.17 |
| 11 | `COc1cccc(NC(=O)N2CC(=O)N3[C@@H](CO)[C@@H](c4ccc(C#CC5CCCCC5)cc4)[C@@H]3C2)c1` | -11.49 |
| 12 | `N#C[C@@H]1[C@H](c2ccccc2-c2ccccc2)[C@H](CO)N1C(=O)NC1CCCC1` | 1.763 |
| 13 | `COc1ccc(S(=O)(=O)N[C@H]2C=C[C@H](CC(=O)N3CCC(Cc4ccccc4)CC3)O[C@@H]2CO)cc1` | -5.46 |
| 14 | `O=C(C[C@H]1CC[C@@H]2[C@H](COC[C@@H](O)CN2C(=O)Nc2cccc(Cl)c2)O1)NCC1CCCCC1` | -11.1 |
| 15 | `CC(C)CC#Cc1ccc([C@H]2[C@@H](CO)N3C(=O)CN(C(=O)c4ccc5c(c4)OCO5)C[C@H]23)cc1` | -9.078 |
| 16 | `COc1cccc(C(=O)Nc2ccc3c(c2)OC[C@H](C)N(CCc2ccccc2)C[C@H](C)[C@@H](OC)CN(C)C3=O)c1` | -8.547 |
| 17 | `CN1c2ccc(-c3ccc(C#N)cc3)cc2[C@H]2[C@H](CCN2C(=O)C2CCCCC2)[C@@H]1CO` | 10.41 |
| 18 | `N#Cc1ccc(-c2ccc([C@@H]3[C@@H](CO)N4C(=O)CN(C(=O)C5CCCCC5)C[C@@H]34)cc2)cc1` | 0.4898 |
| 19 | `COc1ccccc1-c1ccc2c(c1)[C@@H]1[C@@H](CCN1S(=O)(=O)c1ccccc1F)[C@H](CO)N2` | 9.414 |
| 20 | `O=C(Nc1cc(F)ccc1F)N[C@@H]1CC[C@@H](CC(=O)N2CCc3ccccc3C2)O[C@H]1CO` | -6.991 |
| 21 | `COC(=O)[C@@H]1[C@@H](CO)[C@@H]2Cn3c(ccc(-c4ccccc4OC)c3=O)[C@@H]2N1CC1CCCCC1` | -5.802 |
| 22 | `C[C@H](C(=O)N(C)C[C@@H]1OCc2ccccc2-c2c(n(C)c3ccccc23)C(=O)N([C@@H](C)CO)C[C@H]1C)c1ccccc1` | 0.8569 |
| 23 | `CC(C)CC#Cc1ccc([C@@H]2[C@H]3CN(C(=O)Nc4ccccc4)CCCCN3[C@H]2CO)cc1` | -0.2087 |
| 24 | `O=C(C[C@@H]1CC[C@H]2[C@@H](COC[C@H](O)CN2Cc2ccc(Oc3ccccc3)cc2)O1)N1CCOCC1` | -3.332 |
| 25 | `O=C(C[C@@H]1CC[C@H](NC(=O)Nc2cc(F)ccc2F)[C@H](CO)O1)Nc1ccc(-c2ccccc2)cc1` | -7.934 |
| 26 | `O=S(=O)(c1cccc(F)c1)N1CC[C@@H]2[C@@H](CO)Nc3ccc(C#Cc4cccc(F)c4)cc3[C@@H]21` | -15.35 |
| 27 | `OC[C@H]1[C@H](c2ccc(C#Cc3ccccc3F)cc2)[C@H]2CN(Cc3cncnc3)CCCCN21` | 5.92 |
| 28 | `O=C(c1ccc(F)cc1)N1CC(=O)N2[C@H](CO)[C@H](c3ccc(C#CCC4CCCC4)cc3)[C@H]2C1` | -13.44 |
| 29 | `O=C(C[C@H]1CC[C@@H]2[C@H](COC[C@H](O)CN2Cc2ccc3c(c2)OCO3)O1)Nc1ccc(-c2ccccc2)cc1` | 2.299 |
| 30 | `COc1cccc(S(=O)(=O)Nc2ccc3c(c2)C(=O)N(C)C[C@H](OC)[C@@H](C)CN(Cc2ccccc2F)[C@@H](C)CO3)c1` | -14.38 |
| 31 | `COC(=O)[C@H]1[C@H](CO)[C@H]2Cn3c(ccc(-c4ccccc4)c3=O)[C@@H]1N2CC1CCCCC1` | 3.628 |
| 32 | `COc1ccccc1CN(C)C[C@@H]1OCc2ccccc2-c2c(n(C)c3ccccc23)C(=O)N([C@H](C)CO)C[C@H]1C` | -20.85 |
| 33 | `COc1ccccc1C#Cc1ccc([C@H]2[C@@H](CO)N3CCCCN(C(=O)C4CCC4)C[C@H]23)cc1` | -21.03 |
| 34 | `C/C=C/c1ccccc1[C@H]1[C@@H](C#N)N(c2nc(CC)cs2)[C@H]1CO` | -0.3533 |
| 35 | `O=C(c1ccccn1)N1CC[C@@H]2[C@H](CO)Nc3ccc(-c4cccc(F)c4)cc3[C@@H]21` | 1.348 |
| 36 | `COc1ccc(C#Cc2ccc([C@@H]3[C@@H](CO)N4CCCCN(C(=O)c5ccncc5)C[C@H]34)cc2)cc1` | -21.54 |
| 37 | `O=S(=O)(c1ccc(F)cc1)N1CCCCN2[C@H](CO)[C@H](c3ccc(-c4cncnc4)cc3)[C@@H]2C1` | -5.864 |
| 38 | `CCCNC(=O)[C@H]1[C@H](CO)[C@H]2Cn3c(ccc(-c4ccc(F)cc4)c3=O)[C@@H]1N2Cc1ccccc1F` | -13.69 |

Repeated from the top, 2 entries:

SMILES	Gaussia minus Italica difference (%)
O=C(c1ccccc1F)N1CC(=O)N2[C@@H](CO)[C@H](c3ccc(C#Cc4ccccc4)cc3)[C@@H]2C1	-9.093
COc1ccc(NC(=O)N2CCCCN3[C@H](C2)[C@@H](c2ccc(-c4ccccc4F)cc2)[C@@H]3CO)cc1	-5.9